PubChem BioAssay AID493014 (National Center for Advancing Translational Sciences (NCATS), 2011)
This is one part of the list. The main result of the screen is listed elsewhere. These columns were measured beside it and carry no call. The list favours compounds with an active or inconclusive main result. Potencies come from curve fits of mixed quality, noted in brackets.

Assay: qHTS Assay to Find Inhibitors of Chronic Active B-Cell Receptor Signaling
Conditions: ABC-DLBCL IkBa-CBG/CBR reporter, luminescence ratio (green luciferase fused to IkBa over red control in TMD8 lymphoma cells), 4 h
In short: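 TMD8 human ABC-DLBCL cells with doxycycline-inducible IκBα–green luciferase fusion and unfused red luciferase, in 0.5% FBS medium; compounds up to 46 uM, 4 h at 37C. Green/red luminescence ratio, filter-overlap corrected, fitted to concentration-response curves.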

[1] = measured here: CBR red luminescence, cell number
[2] = measured here: IkBa-CBG green luminescence

| Structure (SMILES) | AC50 [1] | AC50 [2] |
| --- | --- | --- |
| Cc1noc(C)c1CSc1nnc2ccc3ccccc3n12 | 6.51 µM [rising, partial curve, poor fit] | – |
| Oc1ccc(/C=N/NC(=S)NCc2ccco2)cc1 | 7.94 µM [falling, partial curve] | – |
| Cc1cc(Cl)c2oc(C(=O)NCC(C)(C)N3CCOCC3)c(C)c2c1 | 0.398 µM [rising, full curve, poor fit] | – |
| O=C(Nc1ccc(-c2nc3ccccc3s2)c(OC(=O)c2ccccc2)c1)c1ccccc1 | 2.06 µM [rising, full curve, poor fit] | – |
| COc1ccc([N+](=O)[O-])cc1N(CC(O)CN(CC(C)C)CC(C)C)S(=O)(=O)c1ccccc1 (stereo unspecified) | 7.08 µM [falling, partial curve, poor fit] | – |
| COC(=O)C1CCN(C(=O)COC(=O)COc2ccc(C#N)cc2)CC1 | 35.5 µM [rising, single point] | – |
| COc1ccc(S(=O)(=O)N2CCOCC2)cc1NC(=O)CCc1cc(OC)c(OC)c(OC)c1 | 4.11 µM [rising, full curve, poor fit] | – |
| Cn1c(=O)c([N+](=O)[O-])c(NCCc2ccccc2)c2ccccc21 | 18.4 µM [falling, partial curve, poor fit] | – |
| COc1cccc(NS(=O)(=O)c2ccc3[nH]cc(C(=O)NC4CC4)c(=O)c3c2)c1 | 1.84 µM [falling, full curve, poor fit] | – |
| c1cnc(SCCOc2cccc3ccccc23)nc1 | 0.58 µM [rising, partial curve, poor fit] | – |
| O=C(CSc1nc2cc(Cl)ccc2s1)c1ccco1 | 12.6 µM [rising, partial curve] | – |
| Cn1c(NC(=O)c2ccc(F)cc2)nc2ccccc21 | 10 µM [falling, partial curve, poor fit] | – |
| CCCc1[nH]n(-c2ccc([N+](=O)[O-])cc2)c(=O)c1C=NCCCn1ccnc1 | 35.5 µM [falling, single point] | – |
| COC(=O)c1cccc(NC(=S)Nc2cc(Cl)ccc2OC)c1 | 5.62 µM [falling, single point] | – |
| CCCNc1nc(Nc2ccc(C)cc2)nc(N2CCCC2)n1 | 6.51 µM [rising, single point] | – |
| C=CCNc1nc(NCC)nc(N2CCOCC2)n1 | 0.316 µM [rising, full curve, poor fit] | – |
| Cc1c(CCC(=O)N[C@@H](C)C(=O)O)c(=O)oc2c(C)c3oc4c(c3cc12)CCCC4 | – | 3.16 µM [falling, partial curve, poor fit] |
| COc1ccc(C(=O)NCc2ccc(-c3nc4ccccc4s3)cc2)cc1 | 3.98 µM [rising, partial curve, poor fit] | – |
| COc1ccc(C(=O)Nc2ccc(S(=O)(=O)N3CCCC3)cc2)c(OC)c1 | 20.6 µM [rising, single point] | – |
| CCCCn1c(SCC(N)=O)nc2sc3c(c2c1=O)CCC3 | 3.98 µM [rising, partial curve, poor fit] | – |

| Structure (SMILES) | AC50 [1] | AC50 [2] |
| --- | --- | --- |
| COc1cc(C(=O)NC2CCN(CC(=O)Nc3cccc(C)c3C)CC2)cc(OC)c1OC | 7.08 µM [rising, full curve, poor fit] | – |
| CCOC(=O)c1ccc(N2C(=O)CC(N3CCN(C(=O)c4ccccc4)CC3)C2=O)cc1 (stereo unspecified) | 12.6 µM [rising, single point] | – |
| O=C(CCN1C(=O)/C(=C/c2ccc3c(c2)OCO3)SC1=S)Nc1ccccc1 | 9.2 µM [falling, partial curve, poor fit] | – |
| CCN(C(=O)COC(=O)c1cc([N+](=O)[O-])ccc1N1CCOCC1)C1CCCCC1 | 16.4 µM [rising, single point] | 4.11 µM [falling, single point] |
| O=C(O)C1=CCCN(CCON=C(c2ccccc2)c2ccccc2)C1 | 20.6 µM [falling, partial curve, poor fit] | – |
| O=c1[nH]c(CCl)nc2cc(-c3ccc(Cl)cc3)sc12 | 9.2 µM [falling, partial curve, poor fit] | – |
| Cc1nc(SCc2ccc(Br)cc2)[nH]c(=O)c1C | 25.9 µM [rising, partial curve, poor fit] | 20.6 µM [falling, single point] |
| CCN1C(=O)C(CC(=O)Nc2ccc(OC)cc2)N(Cc2ccco2)C1=S (stereo unspecified) | 20.6 µM [falling, single point] | – |
| O=C(Nc1cc(SCCO)cc([N+](=O)[O-])c1)c1ccco1 | 6.51 µM [rising, full curve] | – |
| O=C(CSc1nc(-c2ccccc2)c(-c2ccccc2)o1)Nc1nncs1 | 1.3 µM [falling, full curve, poor fit] | – |
| CN(C)S(=O)(=O)c1ccc(NC(=O)COC(=O)c2n[nH]c3ccccc23)cc1 | 20 µM [falling, single point] | – |
| CC(C)(CO)NCc1c(OCc2ccc(Cl)cc2)ccc2ccccc12 | 35.5 µM [falling, single point] | – |
| CC(C)(C)c1ccc(/C=N/Nc2cccc(C(=O)O)c2)cc1 | 11.2 µM [falling, partial curve, poor fit] | – |
| O=C(NCCCN1CCOCC1)C(=O)N/N=C/c1ccccc1Cl | – | 25.1 µM [rising, partial curve, poor fit] |
| N#Cc1ccc(CC(C(=O)O)N2Cc3ccccc3C2=O)cc1 (stereo unspecified) | 22.4 µM [rising, partial curve, poor fit] | – |
| O=c1oc2ccc3ccccc3c2cc1-c1nnc(-c2ccccc2)o1 | 10 µM [falling, partial curve] | – |
| Cc1nn(-c2ccccc2)c(Cl)c1/C=N/Nc1nc2ccccc2[nH]1 | 0.461 µM [rising, full curve, poor fit] | – |
| COc1cc2ccccc2cc1C(=O)NC1CCCC1 | 2.91 µM [rising, full curve, poor fit] | – |
| COc1ccc(Br)cc1/C=C/C(=O)NC(=S)Nc1ccc(CN2CCOCC2)cc1 | 3.98 µM [falling, single point] | – |

By substructure: the compounds so far containing bromine.

| Structure (SMILES) | AC50 [1] | AC50 [2] |
| --- | --- | --- |
| Cc1nc(SCc2ccc(Br)cc2)[nH]c(=O)c1C | 25.9 µM [rising, partial curve, poor fit] | 20.6 µM [falling, single point] |
| COc1ccc(Br)cc1/C=C/C(=O)NC(=S)Nc1ccc(CN2CCOCC2)cc1 | 3.98 µM [falling, single point] | – |
